Measured values taken from patent US20190276561A1.
Where a chain is given by its changes, count along the chain named. These are yes or no findings as the source states them, for the method shown. Binding seen in cells or lysates may run through a third protein. Some entries that bind do so weakly or less than the wild type.

T1: eTEV peptide (…)
T1 sequence (peptide): RENLYFQGKDG

B1: 2H5 antibody-Fv-clasp (v2) (protein)
VH: AVQLVESGGGLVQPKESLKISCAAFGVTFSNVAMYWVRQAPGKGLEWIARIRTKPNNYATYYADSVKGRFTISRDDSKSMVYLQMDNLKTEDTAMYYCTAEVATDWGQGVMVTVCSRSDYEFLKSWTVEDLQKRLLALDPMMEQEIEEIRQKYQSKRQPILDAIEAKTGHHHHHH
VL: DVVLTQAPPTLSATIGQSVSISCRSSQSLLHRNGNTYLNWLLQRPGQPPQLLIYLVSRLESGVPNRFSGSGSGTAFTLKISGLEAEDLGVYYCVQGTHAPLTFGSGTKLEIKRGSDYEFLKSWTVEDLQKRLLALDPMMEQEIEEIRQKYQCKRQPILDAIEAKTGHHHHHH
B2: 2H5 antibody-Fv-clasp (without S-S) (protein)
VH: B1 VH with C115S
VL: B1 VL with C152S

What was measured:
eTEV peptide (…) [1] = target: T1, eTEV peptide (…); test: pull-down on immobilised eTEV peptide (Example 1)
eTEV peptide (…) [2] = target: T1, eTEV peptide (…); test: pull-down from culture supernatant on immobilised eTEV peptide, SDS-PAGE

Row | Binder | binding (eTEV peptide (…) [1]) | binding (eTEV peptide (…) [2])
1 | B1 | binds | binds
2 | B2 |  | binds
